# Assay results reported in PubChem BioAssay AID2685 (National Center for Advancing Translational Sciences (NCATS), 2010).
# This is one part of the list. Shown are side measurements of this screen, not its main read-out; they come without a call. Most of these compounds were active or inconclusive in the main read-out, so they are no random draw. Potencies come from curve fits of mixed quality, noted in brackets.
# Experiment: qHTS Assay for Lipid Storage Modulators in Drosophila S3 Cells;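 for cell number change: cells counted by Cell Tracker Red CMTPX staining in the red channel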
# Conditions: BODIPY lipid droplet fluorescence, 18-24 h; for cell number change: measured here: cell count max response, cells fed with added oleic acid
# Summary of the method: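 Drosophila S3 cells loaded with oleic acid (400 uM, as added) and compounds at several concentrations; lipid droplets imaged by 488-nm laser-scanning cytometry, 500–530 nm intensity and object ratio to cell channel. Percent activity normalized to 20 uM Triacsin C.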
# [1] = measured here: lipid fluorescence (Fed channel) AC50, cells fed with added oleic acid
# [2] = measured here: cell number channel AC50, cells fed with added oleic acid
Compound,cell number change,AC50 [1],AC50 [2]
O=C(CCN1N=C(c2ccccc2)CCC1=O)NCC1CCCO1 (configuration not stated),-24.3%,"9.2 µM [rising, partial curve]",
Fc1ccccc1-c1n[nH]c(=S)n1Cc1ccccc1,10.5%,,
CCCCC(=O)Nc1ccc(C(=O)Nc2nnc(COC)s2)cc1,39.5%,,"29.1 µM [rising, single point]"
C/C(=N/OC(=O)C1CC12CCC2)c1ccc(Br)cc1 (configuration not stated),,,"1.64 µM [rising, partial curve, poor fit]"
Cc1ccc(/C=C2\SC(=S)N(CCCC(=O)Nc3cccc(C(=O)O)c3)C2=O)cc1,11.9%,"18.4 µM [rising, single point]",
Cc1cccc(-c2cc3nc(C)c(C)c(NCCCn4ccnc4)n3n2)c1,-4.38%,,
COc1cc(OC)c(C2=NOC(C(=O)Nc3c(C)n(C)n(-c4ccccc4)c3=O)C2)cc1Cl (configuration not stated),32.7%,"3.26 µM [rising, partial curve]","1.03 µM [rising, partial curve, poor fit]"
CC1CCC2(CC1)NC(=O)c1ccccc1O2 (configuration not stated),2.08%,,
CC(C)C(=O)Nc1ccc(C(=O)NNC(=S)NC(=O)c2cccs2)cc1,-41.5%,"0.231 µM [falling, full curve]","0.164 µM [falling, full curve, poor fit]"
CC(=O)c1cccc(NS(=O)(=O)c2ccc(N/C=C\C(=O)c3ccc(C)cc3)cc2)c1,-32.7%,"4.61 µM [falling, full curve]","2.31 µM [falling, full curve]"
COC(=O)C1CCCCN1C(=O)c1cccc(OC2CCN(C(=O)C3CC3)CC2)c1 (configuration not stated),-30.7%,"0.411 µM [falling, full curve]",
CCC(=O)Nc1ccc(NC(=O)CSc2nnnn2-c2cccnc2)cc1C,-3.44%,"4.11 µM [rising, full curve, poor fit]",
CCCCn1c(N)c(N(CCOC)C(=O)c2sc3cc(F)ccc3c2Cl)c(=O)[nH]c1=O,19.3%,,
C=CCN(C(=O)c1csnn1)C(C(=O)NC1CCCCC1)c1ccc(C)cc1 (configuration not stated),24.3%,"0.58 µM [rising, single point]",
O=C(COc1ccc(Cl)cc1Cl)N1CCNC1=O,12.7%,"1.64 µM [rising, partial curve, poor fit]",
CCn1c(SCC(=O)N2CCCC(C)C2)nnc1-c1ccc(S(=O)(=O)N2CCN(C)CC2)cc1 (configuration not stated),12%,,
CCN1CCN(c2ccc(S(=O)(=O)N3CCCCC3)cc2NC(=O)C(C)Oc2ccc(F)cc2)CC1 (configuration not stated),,,"3.66 µM [rising, single point]"
COc1ccccc1-c1nnc(SCC(=O)NC2CCS(=O)(=O)C2)n1N (configuration not stated),-19.4%,"0.00517 µM [falling, full curve, poor fit]",
O=C(O)c1ccc(Nc2c3ccccc3nc3ccccc23)cc1,34.7%,,
Clc1ccc(-c2nnc(-c3ccccc3)c(N3CCSCC3)n2)cc1,-20.5%,,

Compound,cell number change,AC50 [1],AC50 [2]
CC1=CC(C)(C)N(C(=O)CSc2nnc(-c3ccc(C)cc3)o2)c2ccc(C)cc21,-31.2%,"29.1 µM [rising, single point]","32.6 µM [falling, single point]"
O=C1CC(N2CCOCC2)=NN1c1ccc([N+](=O)[O-])cc1,-19.1%,"0.00517 µM [falling, full curve, poor fit]",
COc1ccc(NC(=O)[C@H](C)NC(=O)C2CCN(S(=O)(=O)c3ccc(C)cc3)CC2)cc1,-8.96%,,
Cc1ccc(OCC(=O)NNC(=O)c2ccoc2C)c(Br)c1,450%,,"0.517 µM [rising, single point]"
Cc1ccc(C)c(S(=O)(=O)NCCCn2ccnc2)c1,12.1%,"1.16 µM [rising, partial curve]",
O=C(NCc1ccc2c(c1)OCO2)Nc1cccc2ccccc12,11.8%,"29.1 µM [rising, single point]",
C=C(c1ccc(OC)cc1)c1ccc(OC)cc1,10.9%,"0.82 µM [falling, single point]",
CCC1=Nc2cc(C(=O)NCCN3CCOCC3)ccc2Sc2ccccc21,19.5%,"29.1 µM [falling, single point]",
Cc1noc(C)c1CSCC(=O)Nc1nc2c(F)cc(F)cc2s1,-6.22%,"0.92 µM [rising, partial curve]","0.461 µM [rising, partial curve, poor fit]"
COc1cc2c(cc1OC)C1O[C@](c3ccsc3)(C2)OC2=C1C(=O)OC1(CCCCC1)C2,14%,"5.31 µM [rising, single point]",
CCOC(=O)CSc1c(-c2ccc(Cl)cc2)[nH]c2ccccc12,-45.8%,"2.06 µM [rising, partial curve, poor fit]",
CCOc1ccc(NC(=O)CSc2nnc(COc3c(C)cccc3C)o2)cc1,,"3.66 µM [rising, single point]",
NS(=O)(=O)c1ccc(CCNc2ccccc2[N+](=O)[O-])cc1,-0.451%,"0.58 µM [falling, single point]",
O=C(N/N=C\c1ccc(CNS(=O)(=O)c2ccc(Cl)cc2)o1)C(=O)Nc1ccc(Oc2ccccc2)cc1,-50.6%,"7.31 µM [falling, partial curve]","7.31 µM [falling, partial curve]"
CNC(=O)c1csc(-c2ccccc2)n1,29.7%,"11.6 µM [rising, partial curve, poor fit]",
COc1ccc(-c2noc(CSc3nnc(Cc4ccccc4)n3-c3cccc(C)c3)n2)cc1OC,-27%,,
O=C(Nc1ccccc1)OC1C2CCC1C(N1CCCCC1)CC2 (configuration not stated),0.0641%,"0.13 µM [falling, single point]",
CCOCCCn1c(=O)c2ccccc2n2c(=S)[nH]nc12,,"2.91 µM [rising, single point]","2.91 µM [rising, single point]"
CCOc1ccc(S(=O)(=O)NCc2cccs2)cc1C(C)C,-15.5%,,
C#CCOCCOCCOCCNc1nc(N2CCN(C(=O)CCCCCCCCCCNC(=O)Cn3cc(CCCCCN)nn3)CC2)nc(N2CCN(C(=O)CCCCCCCCCCNC(=O)[C@H]([C@@H](C)CC)n3cc(CCCCN=C(N)N)nn3)CC2)n1,-19.3%,"2.31 µM [falling, partial curve, poor fit]",

# Single records, as listed above.
# `CCOCCCn1c(=O)c2ccccc2n2c(=S)[nH]nc12` reads AC50 [1]: 2.91 µM [rising, single point]; AC50 [2]: 2.91 µM [rising, single point]
# `CC1=CC(C)(C)N(C(=O)CSc2nnc(-c3ccc(C)cc3)o2)c2ccc(C)cc21` reads cell number change: -31.2%; AC50 [1]: 29.1 µM [rising, single point]; AC50 [2]: 32.6 µM [falling, single point]

# Going on with the list.

Compound,cell number change,AC50 [1],AC50 [2]
COc1ccc(Nc2nc(NCC3CCCO3)nc(N)c2[N+](=O)[O-])cc1 (configuration not stated),-43.6%,"7.31 µM [falling, partial curve]","7.31 µM [falling, partial curve]"
CCCn1nc(NC(=O)c2ccccn2)c2cc3cc(C)ccc3nc21,37.4%,"0.58 µM [rising, single point]","0.103 µM [rising, full curve]"
Cc1ccccc1OCc1nc(-c2ccc(NC(=O)c3ccco3)cc2)no1,-67.9%,"10.3 µM [falling, partial curve]","9.2 µM [falling, partial curve]"
Cc1ccc(CSCC(=O)NN=C2CCN(C)CC2)cc1,23.4%,,
Cc1cc(Br)c(OCc2ccc(C(=O)N/N=C/c3ccc[nH]3)cc2)c(Br)c1,-30.4%,,"29.1 µM [falling, partial curve, poor fit]"
O=C1CC2(CCN(C(=O)c3ccccc3F)CC2)Oc2ccccc21,7.13%,"0.731 µM [falling, partial curve]",
Cc1ccc(-c2nnc(N3CCC(C)CC3)c3ccccc23)cc1,22.8%,,"0.517 µM [rising, partial curve, poor fit]"
CCOC(=O)N1CCN(c2ccc(C(=O)c3cccc(F)c3)cc2)CC1,-18%,"29.1 µM [falling, single point]",
NS(=O)(=O)c1ccc(Cl)cc1[N+](=O)[O-],-12.1%,"29.1 µM [falling, single point]",
COc1ccc(Cl)cc1/C=C(\C#N)C(N)=O,27.1%,"29.1 µM [rising, single point]",
Cc1cc(C(=O)Nn2cnnc2)cs1,0.765%,"29.1 µM [falling, single point]",
CCN(CC)CCN(C(=O)Cn1nnc(-c2ccc(C)o2)n1)C(C(=O)NC1CCCC1)c1ccc(F)cc1 (configuration not stated),24.6%,,
Cc1ccc(Cn2cc(S(=O)(=O)c3ccc(C(C)C)cc3)c(=O)c3cc4c(cc32)OCO4)cc1,16.5%,"32.6 µM [rising, partial curve, poor fit]",
Cc1cnc(-c2nnc(N(C)C(=O)C3CCOC3)s2)cn1 (configuration not stated),,"0.82 µM [falling, full curve, poor fit]",
CNc1nc(Sc2ccccc2)cc(C(F)(F)F)n1,-32.7%,"29.1 µM [falling, single point]","29.1 µM [falling, single point]"
CC1(C)CC(=O)C(C=NCC2CCN(C(=O)Nc3ccc(Cl)c(Cl)c3)CC2)=C(O)C1,18.8%,,
Cc1n[nH]c(=O)c2c(NC(=O)CSc3ccccc3Cl)oc(C)c12,2.53%,,
COc1cc2ccccc2cc1C(=O)Nc1ccc(O)cc1,-47.8%,"29.1 µM [falling, single point]","18.4 µM [falling, single point]"
O=C(CCCc1nc2ccccc2s1)NCc1cccnc1,61.7%,,"5.17 µM [rising, partial curve]"
CCN(CC)c1ccc(NC(=O)COc2ccc(N(C)S(=O)(=O)c3cccs3)cc2)cc1,,"3.66 µM [rising, single point]",

# A section from further up, as a working copy:
Compound,cell number change,AC50 [1],AC50 [2]
Cc1ccccc1OCc1nc(-c2ccc(NC(=O)c3ccco3)cc2)no1,-67.9%,"10.3 µM [falling, partial curve]","9.2 µM [falling, partial curve]"
Cc1ccc(CSCC(=O)NN=C2CCN(C)CC2)cc1,23.4%,,
Cc1cc(Br)c(OCc2ccc(C(=O)N/N=C/c3ccc[nH]3)cc2)c(Br)c1,-30.4%,,"29.1 µM [falling, partial curve, poor fit]"
O=C1CC2(CCN(C(=O)c3ccccc3F)CC2)Oc2ccccc21,7.13%,"0.731 µM [falling, partial curve]",
Cc1ccc(-c2nnc(N3CCC(C)CC3)c3ccccc23)cc1,22.8%,,"0.517 µM [rising, partial curve, poor fit]"
CCOC(=O)N1CCN(c2ccc(C(=O)c3cccc(F)c3)cc2)CC1,-18%,"29.1 µM [falling, single point]",
NS(=O)(=O)c1ccc(Cl)cc1[N+](=O)[O-],-12.1%,"29.1 µM [falling, single point]",
COc1ccc(Cl)cc1/C=C(\C#N)C(N)=O,27.1%,"29.1 µM [rising, single point]",
Cc1cc(C(=O)Nn2cnnc2)cs1,0.765%,"29.1 µM [falling, single point]",
CCN(CC)CCN(C(=O)Cn1nnc(-c2ccc(C)o2)n1)C(C(=O)NC1CCCC1)c1ccc(F)cc1 (configuration not stated),24.6%,,
Cc1ccc(Cn2cc(S(=O)(=O)c3ccc(C(C)C)cc3)c(=O)c3cc4c(cc32)OCO4)cc1,16.5%,"32.6 µM [rising, partial curve, poor fit]",
Cc1cnc(-c2nnc(N(C)C(=O)C3CCOC3)s2)cn1 (configuration not stated),,"0.82 µM [falling, full curve, poor fit]",
CNc1nc(Sc2ccccc2)cc(C(F)(F)F)n1,-32.7%,"29.1 µM [falling, single point]","29.1 µM [falling, single point]"
CC1(C)CC(=O)C(C=NCC2CCN(C(=O)Nc3ccc(Cl)c(Cl)c3)CC2)=C(O)C1,18.8%,,
Cc1n[nH]c(=O)c2c(NC(=O)CSc3ccccc3Cl)oc(C)c12,2.53%,,
COc1cc2ccccc2cc1C(=O)Nc1ccc(O)cc1,-47.8%,"29.1 µM [falling, single point]","18.4 µM [falling, single point]"
O=C(CCCc1nc2ccccc2s1)NCc1cccnc1,61.7%,,"5.17 µM [rising, partial curve]"
